The values that follow come from publication doi:10.1101/2020.10.25.354514.

Amino acid sequences for entries named in this document (tags omitted). Residues count along the entry.
UniProt C0LGT6, residues 25-1031: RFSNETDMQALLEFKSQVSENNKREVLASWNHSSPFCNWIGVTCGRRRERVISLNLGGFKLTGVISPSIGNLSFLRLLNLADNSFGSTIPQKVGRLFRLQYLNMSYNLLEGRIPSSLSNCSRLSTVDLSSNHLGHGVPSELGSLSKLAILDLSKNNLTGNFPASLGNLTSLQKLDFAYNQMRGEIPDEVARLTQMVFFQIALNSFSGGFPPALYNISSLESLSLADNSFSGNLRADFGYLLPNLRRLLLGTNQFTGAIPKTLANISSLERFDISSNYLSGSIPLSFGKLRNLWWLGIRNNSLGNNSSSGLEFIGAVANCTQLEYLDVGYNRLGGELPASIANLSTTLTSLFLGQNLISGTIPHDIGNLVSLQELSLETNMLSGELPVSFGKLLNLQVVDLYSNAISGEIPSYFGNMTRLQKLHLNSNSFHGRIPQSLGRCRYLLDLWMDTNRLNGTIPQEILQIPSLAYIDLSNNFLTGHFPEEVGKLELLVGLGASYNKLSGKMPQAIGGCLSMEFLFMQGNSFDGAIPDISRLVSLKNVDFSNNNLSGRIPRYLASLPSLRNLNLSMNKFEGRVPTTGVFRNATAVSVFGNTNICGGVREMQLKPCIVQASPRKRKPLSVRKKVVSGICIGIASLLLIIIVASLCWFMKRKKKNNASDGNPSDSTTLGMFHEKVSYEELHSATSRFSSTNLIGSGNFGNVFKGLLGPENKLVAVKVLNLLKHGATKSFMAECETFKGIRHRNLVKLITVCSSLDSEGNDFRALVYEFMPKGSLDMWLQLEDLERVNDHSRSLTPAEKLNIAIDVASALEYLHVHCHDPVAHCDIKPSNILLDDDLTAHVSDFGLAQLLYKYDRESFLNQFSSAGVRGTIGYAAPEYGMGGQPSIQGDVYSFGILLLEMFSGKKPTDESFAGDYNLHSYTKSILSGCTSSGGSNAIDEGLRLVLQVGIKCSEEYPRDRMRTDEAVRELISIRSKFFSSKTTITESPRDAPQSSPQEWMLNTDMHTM

Read-outs that look alike come from different tables or passages of the source. Results are given in words; binding and its absence hold for the method and conditions named. In cells and extracts the contact can be indirect. These calls come from enrichment with a bait or labelling near it, and not all partners need be listed. Tags and fused reporters may be left off the sequences shown.

Assay [1] addresses T1, PUB4-FLAG (Arabidopsis) (UniProt O22193).
T1 sequence: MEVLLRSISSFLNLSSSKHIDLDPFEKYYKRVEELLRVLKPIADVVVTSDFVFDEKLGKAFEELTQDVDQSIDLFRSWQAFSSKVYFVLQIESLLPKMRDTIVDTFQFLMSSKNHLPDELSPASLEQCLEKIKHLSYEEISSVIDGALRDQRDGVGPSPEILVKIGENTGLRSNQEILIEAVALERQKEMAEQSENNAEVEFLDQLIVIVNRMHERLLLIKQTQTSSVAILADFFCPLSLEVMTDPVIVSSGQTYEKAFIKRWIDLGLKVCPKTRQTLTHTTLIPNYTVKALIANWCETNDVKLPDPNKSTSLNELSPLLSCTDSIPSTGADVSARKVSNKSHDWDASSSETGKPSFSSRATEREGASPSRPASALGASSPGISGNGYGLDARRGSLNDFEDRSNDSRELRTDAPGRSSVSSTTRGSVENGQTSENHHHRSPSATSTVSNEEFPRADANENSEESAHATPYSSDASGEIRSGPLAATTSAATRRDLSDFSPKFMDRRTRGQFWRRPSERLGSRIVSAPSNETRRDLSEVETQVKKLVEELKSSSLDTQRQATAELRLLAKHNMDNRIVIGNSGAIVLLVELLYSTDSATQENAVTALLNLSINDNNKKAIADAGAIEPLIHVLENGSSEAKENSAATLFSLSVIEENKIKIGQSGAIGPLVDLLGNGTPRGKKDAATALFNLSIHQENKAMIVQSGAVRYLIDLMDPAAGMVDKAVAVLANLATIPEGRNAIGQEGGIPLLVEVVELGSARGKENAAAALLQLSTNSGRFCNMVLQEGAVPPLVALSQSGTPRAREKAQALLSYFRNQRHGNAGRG
Briefly: affinity purification with mass spectrometry.

In assay [2] the target is T1, PUB4-FLAG (Arabidopsis). Nature of the assay: affinity purification with mass spectrometry. This is another data set of the same source.

Consider “EFR (from UniProt C0LGT6 25-1031) (receptor)”, for which the binding result with PUB4-FLAG (Arabidopsis) [1] was “binds”.

B1: XLG1 (protein, UniProt O80462 1-888)
chain: MPLKEDDCCLFAEEYDGPPLSYNIPCAVPINVEKIPVAAVVSPVCISDNMSFPVIQPILSVESKKFLIDSVSPTSVIANCGSNQLELVSDSITVSPTSVIEHTEEEEEEEGGDGEDCELSSSGELLLRSCSVKESLDLNESSSNPLVPDWESNESVLSMDYPSSRVTGDCVSETNGDGKKQPVVTFLGIASDDGFEEEESCSNLRRVRVVPVKKQPQTKGKKGSCYRCFKGSRFTEKEVCLVCDAKYCNSCVLRAMGSMPEGRKCVTCIGFPIDESKRGSLGKCSRMLKRLLNDLEVKQIMKTERFCEANQLPAEYVYVNGQPLYPEELVTLQTCSNPPKKLKPGDYWYDKVSGLWGKEGEKPYQIISPHLNVGGPISPEASNGNTQVFINGREITKVELRMLQLAGVQCAGNPHFWVNEDGSYQEEGQKNTKGYIWGKAGTKLLCAVLSLPVPSKSTANASGEQLYSANSRSILDHLEHRTLQKILLVGNSGSGTSTIFKQAKILYKDVPFLEDERENIKVIIQTNVYGYLGMLLEGRERFEEEALALRNTKQCVLENIPADEGDAKSNDKTVTMYSIGPRLKAFSDWLLKTMAAGNLGVIFPAASREYAPLVEELWRDAAIQATYKRRSELGLLPSVASYFLERAIDVLTPDYEPSDLDILYAEGVTSSSGLACLDFSFPQTASEENLDPSDHHDSLLRYQLIRVPSRGLGENCKWIDMFEDVGMVVFVVSMSDYDQVSEDGTNKMLLTKKLFESIITHPIFENMDFLLILNKYDLLEEKVERVPLARCEWFQDFNPVVSRHRGSNNGNPTLGQLAFHFMAVKFKRFYSSLTGKKLFVSSSKSLDPNSVDSSLKLAMEILKWSEERTNICMSEYSMYSTEPSSFSN
Regarding B1, the binding entry with PUB4-FLAG (Arabidopsis) [2] is “binds”.

B2: SERK2 (receptor, UniProt Q9XIC7 30-628)
chain: NMEGDALHSLRANLVDPNNVLQSWDPTLVNPCTWFHVTCNNENSVIRVDLGNADLSGQLVPQLGQLKNLQYLELYSNNITGPVPSDLGNLTNLVSLDLYLNSFTGPIPDSLGKLFKLRFLRLNNNSLTGPIPMSLTNIMTLQVLDLSNNRLSGSVPDNGSFSLFTPISFANNLDLCGPVTSRPCPGSPPFSPPPPFIPPPIVPTPGGYSATGAIAGGVAAGAALLFAAPALAFAWWRRRKPQEFFFDVPAEEDPEVHLGQLKRFSLRELQVATDSFSNKNILGRGGFGKVYKGRLADGTLVAVKRLKEERTPGGELQFQTEVEMISMAVHRNLLRLRGFCMTPTERLLVYPYMANGSVASCLRERPPSQLPLAWSIRQQIALGSARGLSYLHDHCDPKIIHRDVKAANILLDEEFEAVVGDFGLARLMDYKDTHVTTAVRGTIGHIAPEYLSTGKSSEKTDVFGYGIMLLELITGQRAFDLARLANDDDVMLLDWVKGLLKEKKLEMLVDPDLQSNYTEAEVEQLIQVALLCTQSSPMERPKMSEVVRMLEGDGLAEKWDEWQKVEVLRQEVELSSHPTSDWILDSTDNLHAMELSGPR
Take B2: the binding entry in the assay with PUB4-FLAG (Arabidopsis) [2] was “binds”.

B3: BAK1 (receptor, UniProt Q94F62 26-615)
chain: NAEGDALSALKNSLADPNKVLQSWDATLVTPCTWFHVTCNSDNSVTRVDLGNANLSGQLVMQLGQLPNLQYLELYSNNITGTIPEQLGNLTELVSLDLYLNNLSGPIPSTLGRLKKLRFLRLNNNSLSGEIPRSLTAVLTLQVLDLSNNPLTGDIPVNGSFSLFTPISFANTKLTPLPASPPPPISPTPPSPAGSNRITGAIAGGVAAGAALLFAVPAIALAWWRRKKPQDHFFDVPAEEDPEVHLGQLKRFSLRELQVASDNFSNKNILGRGGFGKVYKGRLADGTLVAVKRLKEERTQGGELQFQTEVEMISMAVHRNLLRLRGFCMTPTERLLVYPYMANGSVASCLRERPESQPPLDWPKRQRIALGSARGLAYLHDHCDPKIIHRDVKAANILLDEEFEAVVGDFGLAKLMDYKDTHVTTAVRGTIGHIAPEYLSTGKSSEKTDVFGYGVMLLELITGQRAFDLARLANDDDVMLLDWVKGLLKEKKLEALVDVDLQGNYKDEEVEQLIQVALLCTQSSPMERPKMSEVVRMLEGDGLAERWEEWQKEEMFRQDFNYPTHHPAVSGWIIGDSTSQIENEYPSGPR
On to B3, for which the binding entry with PUB4-FLAG (Arabidopsis) [2] is on record as “binds”.

B4: XLG2 (protein, UniProt C6KIE6 1-861)
chain: MAAVIRKLLPFPSPNPKRDNRESDDDDETSSGYRIEYSFASEYKGPLIANVPRALPVEVDQIPTALPVSFSSLRSGISYPVAPLVMTKDTKRPPDSGIEKKNGFVDSAAGSSVVLIGRDVVSGSSSSSSSKRLDVPEEVKSPADFRLSPSSPLSASAREEDHLDDDRVSDVGPRAVRFVEPFQSSECDESSYVSDGESIAATHRAERKGKRGSCYRCQLGNRFTEKEVCIVCDAKYCFNCVRRAMGAMPEGRKCQACIGYRIDESKRASLGKCSRMLKRHLTDSELRQVMNAEITCKANQLPSRLIIVNDKPLSEDELYTLQTCPNPPKKLKPGHYWYDKVAGYWGKIGEKPSQIISPNNSIGGYISEKVSNGDTEIYINGREITKPELTMLKWAGVQCEGKPHFWVDSDGSYREEGQKHPIGNIWSKKRAKIACAVFSLPVPPASSAVEPYDVPLYEQKMLNKLLLIGSEKGGATTIYKQARSLYNVSFSLEDRERIKFIIQTNLYTYLAMVLEAHERFEKEMSNDQSSGNVGDETSAKPGNSINPRLKHFSDWVLKEKEDGNLKIFPPSSRENAQTVADLWRVPAIQATYKRLRDTLPRNAVYFLERILEISRSEYDPSDMDILQAEGLSSMEGLSCVDFSFPSTSQEESLESDYQHDTDMKYQLIRLNPRSLGENWKLLEMFEDADLVIFCVSLTDYAENIEDGEGNIVNKMLATKQLFENMVTHPSLANKRFLLVLTKFDLLEEKIEEVPLRTCEWFEDFNPLISQNQTSRHNPPMAQRAFHYIGYKFKRLYDSILEPVNMRGRSFKPKLFVCQVSLESDTVDNALRYAREILKWHVEETSMFQEMSTTSIEASSSS
With B4, the binding result with PUB4-FLAG (Arabidopsis) [2] was “binds”.
